Values from PubChem BioAssay AID504791 (Drosophila RNAi Screening Center, 2011).
Aim: 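Factors in Argonaute-based small RNA production and activity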 (primary screen). Cell system: Drosophila S2-derived reporter cells. Reagent: long dsRNA against Drosophila genes, about 150-250 ng dsRNA per well (siRNA assay); about 80-120 ng (miRNA assay). Time to read-out: about 5 days (siRNA assay); about 4 days (miRNA assay). Treatment: copper sulfate induction of reporters: 25 µM (siRNA assay); 200 mM stated (miRNA assay), 1-2 days before reading. Measurement: 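Per-well ratio of Renilla over firefly light, expressed relative to that plate's average ratio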. Rule for the call: 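a well was a first-pass pick when its plate-scaled ratio rose above 1.5 (siRNA assay) or 1.6 (miRNA assay), or dropped below 0.6; a gene counted only if two separate dsRNAs agreed on retest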.
The deposit covers about 23,000 reagents; shown is a random part of those with a known target gene and a result. Of all reagents, 199 (0.86%) were called active. 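Plate-scaled ratios behind the calls are not deposited; printed light signals are raw; many rows marked increased or decreased are still called inactive.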 Names joined by + are all predicted targets of the reagent. Reagent sequences are not shown. Not stated in the record: the direction of the score.

| Gene | DRSC id | stable siRNA reporter change | stable assay Renilla, run 1 (luminescence) | stable assay firefly, run 1 (luminescence) | activity call |
| --- | --- | --- | --- | --- | --- |
| CG32695 | DRSC17975 | – | 3087 | 3.05e5 | inactive |
| CG42512 + CG32573 | DRSC19532 | – | 6226 | 4.75e5 | inactive |
| CG42512 + CG32573 | DRSC19906 | – | 7244 | 5.05e5 | inactive |
| CG42512 + CG32573 | DRSC22782 | – | 5000 | 4.23e5 | inactive |
| CG15482 | DRSC02492 | – | 7492 | 3.96e5 | inactive |
| CG13603 | DRSC14606 | – | 8053 | 4.80e5 | inactive |
| CG9485 | DRSC04557 | – | 2.10e5 | 5.19e5 | inactive |
| CG32572 | DRSC19525 | – | 6842 | 3.97e5 | inactive |
| CG32572 | DRSC19526 | – | 6326 | 4.54e5 | inactive |
| Gbp1 (Growth-blocking peptide 1) | DRSC06592 | – | 6630 | 3.41e5 | inactive |
| CG6184 | DRSC15986 | – | 6442 | 3.11e5 | inactive |
| Mdh1 (retired record) | DRSC02846 | – | 7287 | 3.94e5 | inactive |
| CG12398 | DRSC19454 | – | 5738 | 4.48e5 | inactive |
| Hmg-2 (High mobility group protein 2) | DRSC04554 | – | 29059 | 4.44e5 | inactive |
| p38a (p38a MAP kinase) | DRSC16743 | – | 6236 | 2.66e5 | inactive |
| CG30048 | DRSC22205 | – | 9163 | 5.17e5 | inactive |
| aln (allnighter) | DRSC08240 | – | 6630 | 5.11e5 | inactive |
| comr (cookie monster) | DRSC04138 | – | 6319 | 3.38e5 | inactive |
| CG32563 | DRSC19934 | – | 5778 | 4.06e5 | inactive |
| CG5377 | DRSC15783 | – | 7889 | 3.64e5 | inactive |
| CG3604 | DRSC00618 | – | 7600 | 3.59e5 | inactive |
| CG8260 | DRSC20098 | – | 5396 | 4.44e5 | inactive |
| Cirl (Calcium-independent receptor for alpha-latrotoxin) | DRSC21942 | – | 8359 | 3.44e5 | inactive |
| Cirl (Calcium-independent receptor for alpha-latrotoxin) | DRSC23235 | – | 3679 | 2.54e5 | inactive |
| Ser8 | DRSC06891 | – | 7230 | 3.74e5 | inactive |
| CheB42b (Chemosensory protein B 42b) | DRSC22878 | – | 4039 | 4.12e5 | inactive |
| CG15254 | DRSC01870 | – | 5211 | 4.04e5 | inactive |
| CG15254 | DRSC21765 | – | 9086 | 4.34e5 | inactive |
| E(z) (Enhancer of zeste) | DRSC11147 | – | 9647 | 4.88e5 | inactive |
| CG17826 | DRSC10289 | – | 4975 | 3.03e5 | inactive |
| CG8564 | DRSC10997 | – | 8750 | 3.75e5 | inactive |
| RYBP (Ring and YY1 Binding Protein) | DRSC04117 | – | 7958 | 3.76e5 | inactive |
| CG13601 | DRSC14604 | – | 10468 | 4.48e5 | inactive |
| Ir7a (Ionotropic receptor 7a) | DRSC17866 | – | 6219 | 3.29e5 | inactive |
| Rab9Fb (Rab at 9Fb) | DRSC19854 | – | 4819 | 4.03e5 | inactive |
| CG15153 | DRSC02454 | – | 6399 | 3.31e5 | inactive |
| CG11034 | DRSC02121 | – | 7283 | 3.88e5 | inactive |
| CG11034 | DRSC02122 | – | 8528 | 5.20e5 | inactive |
| Lsm12a (LSM12 homolog a) | DRSC19702 | – | 4516 | 3.91e5 | inactive |
| Ccdc39 (Coiled-coil domain containing protein 39) | DRSC12286 | – | 7338 | 4.08e5 | inactive |

5 neighbouring entries already listed, quoted:
| Gene | DRSC id | stable siRNA reporter change | stable assay Renilla, run 1 (luminescence) | stable assay firefly, run 1 (luminescence) | activity call |
| --- | --- | --- | --- | --- | --- |
| CG9485 | DRSC04557 | – | 2.10e5 | 5.19e5 | inactive |
| CG32572 | DRSC19525 | – | 6842 | 3.97e5 | inactive |
| CG32572 | DRSC19526 | – | 6326 | 4.54e5 | inactive |
| Gbp1 (Growth-blocking peptide 1) | DRSC06592 | – | 6630 | 3.41e5 | inactive |
| CG6184 | DRSC15986 | – | 6442 | 3.11e5 | inactive |

Further entries follow.
| Gene | DRSC id | stable siRNA reporter change | stable assay Renilla, run 1 (luminescence) | stable assay firefly, run 1 (luminescence) | activity call |
| --- | --- | --- | --- | --- | --- |
| CG2269 | DRSC06833 | – | 8122 | 4.04e5 | inactive |
| CG5191 | DRSC15733 | – | 7468 | 2.95e5 | inactive |
| CG5191 | DRSC15734 | – | 8036 | 3.66e5 | inactive |
| CG5191 | DRSC21559 | – | 8227 | 4.14e5 | inactive |
| CG12290 | DRSC14497 | – | 7340 | 3.62e5 | inactive |
| CG5114 | DRSC10482 | reporter ratio raised past the hit cutoff | 21619 | 4.86e5 | inactive |
| Rab35 | DRSC20691 | – | 5692 | 2.61e5 | inactive |
| Spn53F (Serpin 53F) | DRSC06022 | – | 5894 | 3.13e5 | inactive |
| CG3078 | DRSC18531 | – | 5952 | 2.51e5 | inactive |
| Dhc36C (Dynein heavy chain at 36C) | DRSC03315 | – | 6979 | 3.42e5 | inactive |
| CG31300 | DRSC14657 | – | 6910 | 2.83e5 | inactive |
| Oda (Ornithine decarboxylase antizyme) | DRSC07626 | – | 6480 | 4.03e5 | inactive |
| CG33506 | DRSC05981 | – | 7846 | 5.15e5 | inactive |
| CG4730 | DRSC15633 | – | 6526 | 3.26e5 | inactive |
| Syn1 + CG7370 | DRSC22768 | – | 4099 | 3.35e5 | inactive |
| CG6661 | DRSC10687 | reporter ratio raised past the hit cutoff | 28033 | 5.06e5 | inactive |
| pre-mod(mdg4)-W + pre-mod(mdg4)-Y + mod(mdg4) + 3 more | DRSC16328 | – | 8247 | 4.88e5 | inactive |
| CG13857 | DRSC14707 | – | 7338 | 3.83e5 | inactive |
| veil | DRSC06892 | – | 9051 | 3.91e5 | inactive |
| CG34028 | DRSC17614 | – | 5424 | 3.33e5 | inactive |
| CG7099 | DRSC03006 | – | 5932 | 1.21e6 | inactive |
| TwdlZ (TweedleZ) | DRSC19154 | – | 4283 | 3.97e5 | inactive |
| CG3349 | DRSC10359 | – | 8125 | 3.17e5 | inactive |
| Sytalpha (Synaptotagmin alpha) | DRSC02869 | – | 7982 | 4.44e5 | inactive |
| CG33270 | DRSC10584 | – | 5480 | 4.00e5 | inactive |
| CG15170 | DRSC02471 | – | 6822 | 3.71e5 | inactive |
| clos (closca) | DRSC06240 | – | 6615 | 4.00e5 | inactive |
| clos (closca) | DRSC06241 | – | 5904 | 3.89e5 | inactive |
| clos (closca) | DRSC06778 | – | 6383 | 3.10e5 | inactive |
| clos (closca) | DRSC21857 | – | 9780 | 7.34e5 | inactive |
| clos (closca) | DRSC22942 | – | 4151 | 3.62e5 | inactive |
| nmdyn-D7 | DRSC17016 | – | 6366 | 3.76e5 | inactive |
| Wdr59 (WD repeat domain 59) | DRSC02771 | – | 6275 | 5.70e5 | inactive |
| oys (oysgedart) | DRSC05203 | – | 5715 | 5.50e5 | inactive |
| oys (oysgedart) | DRSC06751 | – | 8168 | 3.17e5 | inactive |
| Gyf (Gigyf) | DRSC17202 | – | 5095 | 3.17e5 | inactive |
| magu | DRSC06832 | – | 7988 | 4.05e5 | inactive |
| NAT1 | DRSC06854 | reporter ratio raised past the hit cutoff | 7340 | 2.21e5 | active |
| AstC-R2 (Allatostatin C receptor 2) | DRSC10051 | – | 7648 | 4.29e5 | inactive |
| Nepl13 (Neprilysin-like 13) | DRSC15632 | – | 6838 | 3.17e5 | inactive |
| Eip78C (Ecdysone-induced protein 78C) | DRSC11864 | reporter ratio raised past the hit cutoff | 5535 | 1.86e5 | inactive |
| Eip78C (Ecdysone-induced protein 78C) | DRSC23097 | – | 2831 | 2.36e5 | inactive |
| Ca-alpha1D (Ca[2+]-channel protein alpha[[1]] subunit D) | DRSC03284 | – | 90646 | 1.21e6 | inactive |
